Measured values: publication PMC9224296
Substitutions are numbered along the chain they refer to. No constants are given. Whether binding was seen depends on the method and setting. In cells and extracts the contact can be indirect. Some entries that bind do so weakly or less than the wild type. For some assays here: Where a sequence is shown, tags or fusion partners need not be part of it.

Amino acid sequences for entries named in this document (tags omitted).
UniProt Q9WUM4: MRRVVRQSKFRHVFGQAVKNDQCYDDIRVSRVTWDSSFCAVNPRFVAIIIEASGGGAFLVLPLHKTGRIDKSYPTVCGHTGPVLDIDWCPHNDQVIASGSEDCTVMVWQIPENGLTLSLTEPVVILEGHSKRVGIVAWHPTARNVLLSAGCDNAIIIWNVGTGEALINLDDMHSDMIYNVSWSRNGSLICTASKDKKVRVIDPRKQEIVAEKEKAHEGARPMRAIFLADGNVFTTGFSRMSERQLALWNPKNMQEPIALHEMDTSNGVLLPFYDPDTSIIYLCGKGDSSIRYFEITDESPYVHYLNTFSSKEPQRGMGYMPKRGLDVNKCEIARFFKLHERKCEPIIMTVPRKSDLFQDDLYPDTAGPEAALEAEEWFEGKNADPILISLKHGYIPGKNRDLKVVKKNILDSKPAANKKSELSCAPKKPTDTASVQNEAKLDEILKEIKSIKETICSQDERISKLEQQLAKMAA

Columns and labels:
[1] = biological target: T1, GFP-Rab44 dominant-negative (DN) mutant (T551N) (mouse) (UniProt Q8CB87); assay: proximity ligation; Duolink PLA in fixed, permeabilised RAW-D cells with rabbit anti-Rab44 and mouse anti-Coronin1C; RCA products counted per cell by confocal microscopy
T1 sequence: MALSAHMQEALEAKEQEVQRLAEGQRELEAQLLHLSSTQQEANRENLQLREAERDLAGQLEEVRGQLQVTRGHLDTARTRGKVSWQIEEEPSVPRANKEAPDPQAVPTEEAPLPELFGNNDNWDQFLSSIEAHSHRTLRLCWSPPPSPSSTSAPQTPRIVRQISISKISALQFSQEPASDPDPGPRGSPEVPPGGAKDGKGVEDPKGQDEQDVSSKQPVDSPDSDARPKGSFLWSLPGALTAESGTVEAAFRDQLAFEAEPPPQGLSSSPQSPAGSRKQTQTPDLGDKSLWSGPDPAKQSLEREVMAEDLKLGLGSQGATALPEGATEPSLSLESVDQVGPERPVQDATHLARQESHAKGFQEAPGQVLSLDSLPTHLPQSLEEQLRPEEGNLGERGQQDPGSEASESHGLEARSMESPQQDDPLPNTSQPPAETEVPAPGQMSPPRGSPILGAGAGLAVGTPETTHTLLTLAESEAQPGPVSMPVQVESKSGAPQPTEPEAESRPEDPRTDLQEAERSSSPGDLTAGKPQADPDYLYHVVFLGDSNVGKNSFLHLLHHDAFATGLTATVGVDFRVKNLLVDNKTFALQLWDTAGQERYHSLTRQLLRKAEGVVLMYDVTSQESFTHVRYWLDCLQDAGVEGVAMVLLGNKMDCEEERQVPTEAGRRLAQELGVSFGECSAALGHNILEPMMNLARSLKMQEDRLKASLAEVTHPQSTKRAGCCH

GFP-Rab44 (WT) (mouse) [2] = biological target: T2, GFP-Rab44 (WT) (mouse) (UniProt Q8CB87); assay: as above
T2 sequence: T1 sequence with N551T

[3] = biological target: T3, endogenous Rab44 (mouse (endogenous in RAW-D)) (UniProt Q8CB87); assay: as above
T3 sequence: T1 sequence with N551T

[4] = biological target: T1, GFP-Rab44 dominant-negative (DN) mutant (T551N) (mouse); assay: co-IP; IP with GFP antibody from lysates of RAW-D cells expressing GFP only, GFP-Rab44 WT, CA or DN; Western blot with anti-Coronin1C
GFP-Rab44 (WT) (mouse) [5] = biological target: T2, GFP-Rab44 (WT) (mouse); assay: as above

Measured: binding

Coronin1C (from UniProt Q9WUM4 1-474)
binds: [1] | GFP-Rab44 (WT) (mouse) [2] | [3] | [4] | GFP-Rab44 (WT) (mouse) [5]
